The values that follow come from PubChem BioAssay AID330 (DTP/NCI, 2004).

In the assay the test system is P388 leukemia ip, CD2F1 mice, survival T/C. Put plainly: NCI In Vivo Anticancer Drug Screen. Data for tumor model P388 Leukemia (intraperitoneal) in CD2F1 (CDF1) mice. Conditions: T/C endpoint: median survival time, higher T/C = longer survival.

The list is a part of this screen's results and no random one: its compounds were picked by chemical class. Other doses and runs of a compound may be missing. T/C gives the treated animals as a percentage of the vehicle group. Some doses have a count of surviving animals in place of a T/C: the source files T/C as zero there, which appears to mark a toxic dose or a test without result, not a measured value. Some survivor counts are full or nearly so, which does not show that the dose was tolerated: survival well below the control is almost never listed, so the zero probably covers shortened survival too. Counts of survivors are from the toxicity check (mostly the fifth day) where no day follows; animals may have died later. Schedules are NCI's codes, taken here to give the interval after Q, in days (D) or hours (H), and the number of doses after X. For survival time, this PubChem deposit counts one and a half times the control or more as active, and values a quarter to a half above the control carry no call in these data; other NCI protocols may use other cut-offs. Some doses were run more than once; their values stand side by side, smallest first. Some T/C values carry the count of animals alive at the toxicity check (mostly the fifth day); without a count or a note in brackets, all were alive then.

Take `CCN(CCCl)CC1OC(OC)C2OC(C)(C)OC12` (centres undefined): the T/C is 169 % of control (dose: 3.13 mg/kg/injection, schedule: Q01DX009 (ip), vehicle: saline + alcohol); 154 % of control (dose: 4.3 mg/kg/injection, schedule: Q01DX009 (ip), vehicle: saline); 169 % of control (dose: 6.25 mg/kg/injection, schedule: Q01DX009 (ip), vehicle: saline + alcohol); 154 % of control (dose: 7.2 mg/kg/injection, schedule: Q01DX009 (ip), vehicle: saline); 168 % of control (dose: 12.0 mg/kg/injection, schedule: Q01DX009 (ip), vehicle: saline); 183 % of control (dose: 12.5 mg/kg/injection, schedule: Q01DX009 (ip), vehicle: saline + alcohol). The T/C reads like this: (dose: 63.0 micrograms/kg/injection, schedule: Q01DX009 (ip), vehicle: saline) 109 % of control; (dose: 125.0 micrograms/kg/injection, schedule: Q01DX009 (ip), vehicle: saline) 126 % of control; (dose: 250.0 micrograms/kg/injection, schedule: Q01DX009 (ip), vehicle: saline) 135 % of control; (dose: 500.0 micrograms/kg/injection, schedule: Q01DX009 (ip), vehicle: saline) 157 % of control. Besides, the survivor count runs as follows: (dose: 20.0 mg/kg/injection, schedule: Q01DX009 (ip), vehicle: saline) 10 of 10; (dose: 25.0 mg/kg/injection, schedule: Q01DX009 (ip), vehicle: saline + alcohol) 6 of 6.
As for `O=[N+]([O-])CCC([N+](=O)[O-])([N+](=O)[O-])[N+](=O)[O-]`, the T/C runs as follows: (dose: 100.0 mg/kg/injection, schedule: Q04DX003 (ip), vehicle: saline) 90 % of control [5 of 6 alive]; (dose: 200.0 mg/kg/injection, schedule: Q04DX003 (ip), vehicle: saline) 92 % of control; (dose: 400.0 mg/kg/injection, schedule: Q04DX003 (ip), vehicle: saline) 92 % of control.
With `ClCC1CS1` (centres undefined), the T/C was 150 % of control (dose: 100.0 mg/kg/injection, schedule: Q01DX009 (ip), vehicle: saline sonified); 165 % of control (dose: 200.0 mg/kg/injection, schedule: Q01DX009 (ip), vehicle: saline sonified); 90 % of control [4 of 6 alive] (dose: 400.0 mg/kg/injection, schedule: Q01DX009 (ip), vehicle: saline sonified).
`C/C(=C/c1cnc([N+](=O)[O-])n1C)[N+](=O)[O-]`: the T/C was 113 % of control (dose: 25.0 mg/kg/injection, schedule: Q01DX001 (ip), vehicle: Klucel (hydroxypropylcellulose) (HPC)); 115 % of control (dose: 50.0 mg/kg/injection, schedule: Q01DX001 (ip), vehicle: Klucel (hydroxypropylcellulose) (HPC)); 102 and 116 % of control (dose: 100.0 mg/kg/injection, schedule: Q01DX001 (ip), vehicle: Klucel (hydroxypropylcellulose) (HPC)). For the same compound, the survivor count reads like this: (dose: 200.0 mg/kg/injection, schedule: Q01DX001 (ip), vehicle: Klucel (hydroxypropylcellulose) (HPC)) 0 of 6; (dose: 400.0 mg/kg/injection, schedule: Q01DX001 (ip), vehicle: Klucel (hydroxypropylcellulose) (HPC)) 0 of 6.
On to `O=C(OCCN1CCCC1)N(CCCl)CCCl`, for which the T/C is, setting by setting: (dose: 1.56 mg/kg/injection, schedule: Q01DX009 (ip), vehicle: distilled water + Tween-80) 100 % of control; (dose: 3.13 mg/kg/injection, schedule: Q01DX009 (ip), vehicle: distilled water + Tween-80) 98 % of control; (dose: 6.25 mg/kg/injection, schedule: Q01DX009 (ip), vehicle: distilled water + Tween-80) 100 % of control; (dose: 12.5 mg/kg/injection, schedule: Q01DX009 (ip), vehicle: distilled water + Tween-80) 100 % of control; (dose: 25.0 mg/kg/injection, schedule: Q01DX009 (ip), vehicle: distilled water + Tween-80) 107 % of control.
As for `O=[N+]([O-])c1ccc(Sc2ccnc(Sc3ccc([N+](=O)[O-])cc3[N+](=O)[O-])n2)c([N+](=O)[O-])c1`, the T/C was 91 % of control (dose: 50.0 mg/kg/injection, schedule: Q01DX009 (ip), vehicle: suspension in saline); 95 % of control (dose: 100.0 mg/kg/injection, schedule: Q01DX009 (ip), vehicle: suspension in saline); 98 % of control [4 of 6 alive] (dose: 200.0 mg/kg/injection, schedule: Q01DX009 (ip), vehicle: suspension in saline).
As to `CC(=O)c1cccc2ccc(N(CCCl)CCCl)cc12`, the T/C reads like this: (dose: 50.0 mg/kg/injection, schedule: Q01DX009 (ip), vehicle: Klucel (hydroxypropylcellulose) (HPC)) 100 and 111 % of control; (dose: 100.0 mg/kg/injection, schedule: Q01DX009 (ip), vehicle: Klucel (hydroxypropylcellulose) (HPC)) 110 and 129 % of control; (dose: 200.0 mg/kg/injection, schedule: Q01DX009 (ip), vehicle: Klucel (hydroxypropylcellulose) (HPC)) 108 and 148 % of control; (dose: 400.0 mg/kg/injection, schedule: Q01DX009 (ip), vehicle: Klucel (hydroxypropylcellulose) (HPC)) 121 % of control.
With `C1CN1.O=C(O)CCSCNc1ncnc2c1ncn2C1OC(COP(=O)(O)OP(=O)(O)OP(=O)(O)O)C(O)C1O` (centres undefined), the T/C runs as follows: (dose: 5.0 mg/kg/injection, schedule: Q04DX002 (ip), vehicle: saline) 106 % of control; (dose: 10.0 mg/kg/injection, schedule: Q04DX002 (ip), vehicle: saline) 118 % of control [5 of 6 alive]; (dose: 20.0 mg/kg/injection, schedule: Q04DX002 (ip), vehicle: saline) 109 % of control [5 of 6 alive]. Besides, the survivor count (dose: 100.0 mg/kg/injection, schedule: Q04DX002 (ip), vehicle: saline) is reported as 0 of 6; the survivor count (dose: 200.0 mg/kg/injection, schedule: Q04DX002 (ip), vehicle: saline) is 0 of 6; the survivor count (dose: 400.0 mg/kg/injection, schedule: Q04DX002 (ip), vehicle: saline) is listed as 0 of 6.
Regarding `COP1OCC(C(C)(C)C)CN1c1ccccc1` (centres undefined), the T/C is 100 % of control (dose: 100.0 mg/kg/injection, schedule: Q04DX003 (ip), vehicle: Klucel (hydroxypropylcellulose) (HPC)); 101 % of control (dose: 200.0 mg/kg/injection, schedule: Q04DX003 (ip), vehicle: Klucel (hydroxypropylcellulose) (HPC)); 98 % of control (dose: 400.0 mg/kg/injection, schedule: Q04DX003 (ip), vehicle: Klucel (hydroxypropylcellulose) (HPC)).
As for `O=C(O)COc1cccc(CN(CCCl)CCCl)c1`, the T/C by setting is: (dose: 0.15 mg/kg/injection, schedule: Q01DX009 (ip), vehicle: saline) 112 % of control; (dose: 0.15 mg/kg/injection, schedule: Q04DX003 (ip), vehicle: saline with Tween-80) 140 % of control; (dose: 0.3 mg/kg/injection, schedule: Q01DX009 (ip), vehicle: saline) 120 % of control; (dose: 0.3 mg/kg/injection, schedule: Q04DX003 (ip), vehicle: saline with Tween-80) 150 % of control; (dose: 0.6 mg/kg/injection, schedule: Q01DX009 (ip), vehicle: saline) 141 % of control; (dose: 0.6 mg/kg/injection, schedule: Q04DX003 (ip), vehicle: saline with Tween-80) 168 % of control [5 of 6 alive]. Also, the T/C (dose: 5.0 mg/kg/injection, schedule: Q04DX003 (ip), vehicle: saline) is 168 % of control. Further, the survivor count reads like this: (dose: 4.0 mg/kg/injection, schedule: Q04DX003 (ip), vehicle: saline) 4 of 6; (dose: 6.0 mg/kg/injection, schedule: Q04DX003 (ip), vehicle: saline) 1 of 6; (dose: 9.0 mg/kg/injection, schedule: Q04DX003 (ip), vehicle: saline) 0 of 6; (dose: 10.0 mg/kg/injection, schedule: Q04DX003 (ip), vehicle: saline) 6 of 6; (dose: 20.0 mg/kg/injection, schedule: Q04DX003 (ip), vehicle: saline) 3 of 6; (dose: 100.0 mg/kg/injection, schedule: Q04DX003 (ip), vehicle: saline with Tween-80) 0 of 6. The survivor count (dose: 200.0 mg/kg/injection, schedule: Q04DX003 (ip), vehicle: saline with Tween-80) is recorded as 0 of 6 and the survivor count (dose: 400.0 mg/kg/injection, schedule: Q04DX003 (ip), vehicle: saline with Tween-80) is recorded as 0 of 6.
